Data on 7 substances can be found in publication PMC4111544.

Sequences of proteins named here, by UniProt entry; tags and fusion partners are left off. A change or cut given only in a name is not applied to a line headed by its entry.
UniProt Q8I431: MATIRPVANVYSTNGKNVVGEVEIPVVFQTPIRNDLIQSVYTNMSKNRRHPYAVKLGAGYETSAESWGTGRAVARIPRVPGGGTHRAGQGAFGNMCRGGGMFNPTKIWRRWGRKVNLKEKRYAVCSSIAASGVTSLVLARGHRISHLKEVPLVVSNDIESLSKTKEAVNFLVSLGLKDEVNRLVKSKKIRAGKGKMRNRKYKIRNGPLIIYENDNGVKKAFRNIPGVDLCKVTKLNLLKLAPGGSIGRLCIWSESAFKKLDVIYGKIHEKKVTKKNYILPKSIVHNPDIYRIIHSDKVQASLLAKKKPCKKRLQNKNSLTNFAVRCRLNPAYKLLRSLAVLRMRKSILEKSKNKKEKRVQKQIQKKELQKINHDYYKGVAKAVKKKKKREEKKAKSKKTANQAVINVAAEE
UniProt Q8IKK7: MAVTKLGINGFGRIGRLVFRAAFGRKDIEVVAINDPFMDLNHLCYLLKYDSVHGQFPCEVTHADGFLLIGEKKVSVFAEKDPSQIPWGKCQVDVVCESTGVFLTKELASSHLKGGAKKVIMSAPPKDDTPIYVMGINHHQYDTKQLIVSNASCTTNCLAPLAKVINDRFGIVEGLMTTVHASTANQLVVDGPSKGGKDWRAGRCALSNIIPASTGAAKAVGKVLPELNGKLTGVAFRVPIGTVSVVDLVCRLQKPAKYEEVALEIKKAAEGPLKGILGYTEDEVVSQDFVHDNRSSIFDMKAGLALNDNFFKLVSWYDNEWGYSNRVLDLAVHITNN
UniProt Q8I6U8: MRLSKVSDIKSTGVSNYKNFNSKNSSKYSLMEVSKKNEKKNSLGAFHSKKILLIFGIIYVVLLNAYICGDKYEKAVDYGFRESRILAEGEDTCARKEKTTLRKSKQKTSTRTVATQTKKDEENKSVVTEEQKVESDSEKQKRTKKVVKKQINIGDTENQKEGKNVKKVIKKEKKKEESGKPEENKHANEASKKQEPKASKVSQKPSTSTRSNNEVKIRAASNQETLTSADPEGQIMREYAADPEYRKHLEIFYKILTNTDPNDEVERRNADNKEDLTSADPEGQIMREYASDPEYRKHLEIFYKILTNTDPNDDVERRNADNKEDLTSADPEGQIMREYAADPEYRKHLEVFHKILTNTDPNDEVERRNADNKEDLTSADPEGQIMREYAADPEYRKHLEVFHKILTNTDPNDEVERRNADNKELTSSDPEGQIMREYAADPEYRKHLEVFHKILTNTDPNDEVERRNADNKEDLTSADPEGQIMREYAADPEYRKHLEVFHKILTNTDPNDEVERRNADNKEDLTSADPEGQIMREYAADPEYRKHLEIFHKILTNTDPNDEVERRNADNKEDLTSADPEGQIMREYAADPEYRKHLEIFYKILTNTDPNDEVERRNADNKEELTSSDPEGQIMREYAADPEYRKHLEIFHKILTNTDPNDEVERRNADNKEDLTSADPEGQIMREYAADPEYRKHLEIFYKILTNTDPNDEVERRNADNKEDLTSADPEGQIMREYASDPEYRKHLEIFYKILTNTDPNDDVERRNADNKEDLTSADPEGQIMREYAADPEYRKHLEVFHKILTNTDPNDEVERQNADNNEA
UniProt Q8IC05: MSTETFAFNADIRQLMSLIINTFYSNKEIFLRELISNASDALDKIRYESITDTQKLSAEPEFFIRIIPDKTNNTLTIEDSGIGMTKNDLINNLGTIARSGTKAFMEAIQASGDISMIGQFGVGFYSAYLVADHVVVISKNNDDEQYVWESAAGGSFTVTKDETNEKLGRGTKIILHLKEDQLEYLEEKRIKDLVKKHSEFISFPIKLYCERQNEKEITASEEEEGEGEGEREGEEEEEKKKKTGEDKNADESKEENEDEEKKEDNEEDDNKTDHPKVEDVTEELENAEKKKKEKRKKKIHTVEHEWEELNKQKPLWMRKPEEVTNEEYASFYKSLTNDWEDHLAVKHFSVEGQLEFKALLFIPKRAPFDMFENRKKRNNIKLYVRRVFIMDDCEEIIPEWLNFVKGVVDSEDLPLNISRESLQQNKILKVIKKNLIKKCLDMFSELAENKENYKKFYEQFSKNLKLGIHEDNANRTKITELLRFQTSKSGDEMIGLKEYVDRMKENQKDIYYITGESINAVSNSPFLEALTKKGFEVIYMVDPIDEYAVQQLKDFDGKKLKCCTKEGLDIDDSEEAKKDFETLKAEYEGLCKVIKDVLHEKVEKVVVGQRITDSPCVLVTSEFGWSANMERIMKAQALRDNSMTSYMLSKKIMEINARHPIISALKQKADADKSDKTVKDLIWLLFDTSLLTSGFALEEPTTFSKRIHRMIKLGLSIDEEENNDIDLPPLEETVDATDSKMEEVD

No constants are given. Whether binding was seen depends on the method and setting. Binding seen in cells or lysates may run through a third protein. Here binding means that the protein was enriched with, or labelled near, the bait; the list need not be complete. Where a sequence is shown, tags or fusion partners need not be part of it.

For the experiment, the target named is T1, small exported membrane protein 1 (SEMP1) with a C-terminal 3xHA tag (Plasmodium falciparum) (UniProt Q8IC43).
T1 sequence: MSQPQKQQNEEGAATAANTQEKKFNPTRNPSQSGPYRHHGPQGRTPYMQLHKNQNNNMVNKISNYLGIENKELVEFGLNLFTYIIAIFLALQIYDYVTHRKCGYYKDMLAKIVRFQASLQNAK
In words: affinity purification with mass spectrometry; trophozoite stage 3D7 parasites expressing SEMP1-3xHA cross-linked with 1% formaldehyde, saponin released, lysed in 1% SDS and sonicated; α-HA affinity matrix, 4 °C, 16 h; washed with 50 mM Tris-HCl pH 7.4, 150 mM NaCl, 1 mM EDTA, 1% NP40; eluted with HA peptide; LC-MS/MS of TCA precipitated elution or Coomassie-stained gel slices; negative control with excess HA peptide during binding.
In the case of “60S ribosomal protein L4 (from UniProt Q8I431 1-411)”, the binding result is “binds”.
In the case of “GAPDH (PF3D7_1462800) (from UniProt Q8IKK7 1-337)”, the binding entry is on record as “binds”.
To “Glycophorin Binding Protein GBP (from UniProt Q8I6U8)” belongs “binds”; to “HSP90 (PF3D7_0708400) (from UniProt Q8IC05 1-745)”, “binds”; to Pf332 (from UniProt Q8IHN4 1-6093), “binds”.
Regarding PfHsp70-x, the binding entry is reported as “binds”.
For “parasite-infected erythrocyte surface protein 2 (PIESP2) (from UniProt Q8I488)”, the binding entry is “binds”.
